Source: PubChem BioAssay AID2685 (National Center for Advancing Translational Sciences (NCATS), 2010)
This is one part of the list. These are further read-outs of the screen, such as a control signal, another cell line or another target. No call is given for them. Compounds called inactive in the main read-out are mostly missing here. Potencies come from curve fits of mixed quality, noted in brackets.

Test: qHTS Assay for Lipid Storage Modulators in Drosophila S3 Cells;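 as to cell number change: cells counted by Cell Tracker Red CMTPX staining in the red channel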
Settings: BODIPY lipid droplet fluorescence, 18-24 h; for cell number change: measured here: cell count max response, cells fed with added oleic acid
Summary of the method: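 Laser-scanning cytometry quantifies lipid droplet accumulation (500–530 nm total intensity; droplet/cell object ratio) in oleic acid-fed (400 uM added) Drosophila S3 cells treated with a concentration series. 20 uM Triacsin C defined 100% inhibition.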

[1] = measured here: lipid fluorescence (Fed channel) AC50, cells fed with added oleic acid
[2] = measured here: cell number channel AC50, cells fed with added oleic acid

Structure (SMILES) | AC50 [1] | cell number change [%] | AC50 [2]
Cc1cc(NC(=O)CCC(=O)N(CC(=O)NCC2CCCO2)c2ccc(C)c(C)c2)no1 (centres undefined) | 0.0058 µM [falling, full curve, poor fit] |  | 
CC(=O)Nc1ccc(S(=O)(=O)NC(C)C(=O)NC(C)c2ccccc2)cc1 (centres undefined) |  | 46.1 | 7.31 µM [rising, partial curve]
Cc1ccc(C)c(NC(=O)CSc2nnc(C)c(=O)n2N)c1 | 23.1 µM [rising, partial curve] | 47.2 | 11.6 µM [rising, partial curve]
O=C(COc1ccccc1-c1ccccc1)N/N=C/c1ccc2ccccc2c1 | 14.6 µM [falling, partial curve] | -34.4 | 9.2 µM [falling, partial curve]
CCC1(C)Cc2c(c(=O)n(-c3ccccc3)c3ncnc(N)c23)CO1 (centres undefined) | 0.411 µM [falling, partial curve, poor fit] | 0.674 | 
N/C(=N\OC(=O)Cc1cccs1)c1ccc(Cl)cc1 | 2.91 µM [rising, partial curve] | 21.6 | 
COc1cc(/C=C/C(=O)OCC(=O)NC(=O)NC23CC4CC(CC(C4)C2)C3)ccc1OCC#N | 3.66 µM [rising, full curve] | -33.5 | 2.91 µM [rising, single point]
CCOc1ccccc1C(=O)NC1CCNCC1 | 9.2 µM [rising, partial curve] | 12.9 | 
CC1CCCC(NC(=O)COC(=O)CCC2CCCC2)C1C (centres undefined) | 29.1 µM [falling, single point] | -23.8 | 
CC(OC(=O)COc1ccc(C#N)cc1)C(=O)Nc1ccc(Cl)cn1 (centres undefined) |  | 9.24 | 
Cc1cccc(C2NS(=O)(=O)N=C2N)c1 (centres undefined) | 29.1 µM [falling, single point] | 35 | 29.1 µM [rising, single point]
O=[N+]([O-])c1ccc(COc2ccccc2/C=N/O)cc1 | 0.0058 µM [falling, full curve, poor fit] |  | 
CC(C)(C)NC(=S)NCc1ccco1 | 3.26 µM [falling, single point] | -17.2 | 
COc1ccc2cc(CCNC(=O)CCc3ccccc3)c(=O)[nH]c2c1 |  | -13 | 0.13 µM [falling, full curve, poor fit]
C/C(=N\NC(=O)c1ccc(CSc2cccc3cccnc23)cc1)C1CCCCC1 | 1.46 µM [rising, partial curve] | -0.918 | 
O=C(NNC(=S)NCc1ccccc1)c1ccc(OC(F)F)cc1 | 0.0326 µM [rising, full curve] | 24.3 | 
Cc1cc(C)c(NC(=O)CNC(=O)CNC(=O)C2CCCCC2)c(C)c1 | 2.91 µM [falling, single point] | 20.4 | 
CCOc1ccc(-n2c(SCC(=O)Nc3ccc(CC)cc3)nc3n[nH]c(C)c3c2=N)cc1 | 18.4 µM [falling, single point] | -46.6 | 23.1 µM [falling, single point]
O=C(CCNS(=O)(=O)c1ccccc1C(F)(F)F)NCCCc1ccccc1 | 2.31 µM [rising, single point] | -3.42 | 
COc1ccc(C(=O)NCc2ccc(-n3cccc3)cc2)cc1OC | 6.51 µM [rising, partial curve, poor fit] | -6.15 | 6.51 µM [rising, single point]
CN(C)C(CNC(=O)c1ccc2[nH]c(=O)c(=O)[nH]c2c1)c1ccco1 (centres undefined) |  | -33.9 | 25.9 µM [falling, single point]
COc1ccc(CNC(=O)CCN2C(=O)c3ccccc3S2(=O)=O)cc1 | 14.6 µM [falling, partial curve] | -19.9 | 
CN(CC(O)COc1c(F)cc(Br)cc1F)C1CCCCC1 (centres undefined) |  | 4.75 | 2.06 µM [falling, partial curve]
CCOc1ccc(N2C(=O)/C(=C/c3ccccc3OCC(=O)OC)N(CC(=O)OC)C2=S)cc1 | 20.6 µM [rising, single point] | 27.6 | 
Cc1ccc(C)c(Cn2nc(-c3ccccc3)ccc2=O)c1 |  | -20.6 | 
Cc1c(C(=O)NNC(=O)c2csc(N3CCOCC3)n2)oc2ccccc12 | 18.4 µM [rising, single point] | 17.9 | 
Cc1cc(C(=O)NC2CCCC(C)C2C)c2ccccc2n1 (centres undefined) | 18.4 µM [rising, partial curve] | -1.16 | 
COc1ccc(/C=N/N=C2/NC(=O)C(c3ccccc3)(c3ccccc3)S2)cc1 | 20.6 µM [falling, partial curve] |  | 
COc1cc(C(=O)OCc2cccc(S(=O)(=O)N3CCOCC3)c2)ccc1OCC(C)C | 0.58 µM [rising, single point] | -6.14 | 

An excerpt from further up, for reference:
Structure (SMILES) | AC50 [1] | cell number change [%] | AC50 [2]
Cc1cc(C)c(NC(=O)CNC(=O)CNC(=O)C2CCCCC2)c(C)c1 | 2.91 µM [falling, single point] | 20.4 | 
CCOc1ccc(-n2c(SCC(=O)Nc3ccc(CC)cc3)nc3n[nH]c(C)c3c2=N)cc1 | 18.4 µM [falling, single point] | -46.6 | 23.1 µM [falling, single point]
O=C(CCNS(=O)(=O)c1ccccc1C(F)(F)F)NCCCc1ccccc1 | 2.31 µM [rising, single point] | -3.42 | 
COc1ccc(C(=O)NCc2ccc(-n3cccc3)cc2)cc1OC | 6.51 µM [rising, partial curve, poor fit] | -6.15 | 6.51 µM [rising, single point]
CN(C)C(CNC(=O)c1ccc2[nH]c(=O)c(=O)[nH]c2c1)c1ccco1 (centres undefined) |  | -33.9 | 25.9 µM [falling, single point]
COc1ccc(CNC(=O)CCN2C(=O)c3ccccc3S2(=O)=O)cc1 | 14.6 µM [falling, partial curve] | -19.9 | 
CN(CC(O)COc1c(F)cc(Br)cc1F)C1CCCCC1 (centres undefined) |  | 4.75 | 2.06 µM [falling, partial curve]
CCOc1ccc(N2C(=O)/C(=C/c3ccccc3OCC(=O)OC)N(CC(=O)OC)C2=S)cc1 | 20.6 µM [rising, single point] | 27.6 | 
